Reference: the supplement of paper PMC7858590
± gives the standard deviation of the averaged measurements. Whole data set: some 3,800 compounds, median “cell shape (eccentricity) Z-score vs DMSO control” near 1.1, cut for the lowest 2% near -4.7. This is one part of the list.

Each compound was assayed on human monocyte-derived macrophages (M0) (assay: cell shape (eccentricity) Z-score vs DMSO control; higher = more elongated, M2-like morphology). Conditions: 20 µM; 24 h; macrophage state: M0 (M-CSF).

Structure (SMILES)	cell shape (Z-score)
COc1cc(C2Oc3c(OC)cc(CCCO)cc3C2CO)ccc1O[C@H]1O[C@H](C)[C@@H](O)[C@H](O)[C@@H]1O (stereo partly specified)	0.0375
CC(C)[C@@H]1CC[C@@]2(C)CCC[C@@](C)(O)[C@@H]2[C@H]1OC(=O)/C=C/c1ccccc1	2.15
C=Cc1ccc(O[C@@H]2O[C@H](CO[C@@H]3O[C@@H](C)[C@H](O)[C@@H](O)[C@H]3O)[C@@H](O)[C@H](O)[C@H]2O)cc1	0.0578 ± 0.94
CC1CC(C)CN(c2cc(Nc3ccccc3C(=O)O)c3c4c(onc24)-c2ccccc2C3=O)C1 (stereo unspecified)	3.59
CC1(C)CC[C@]2(C(=O)O)CC[C@]3(C)C(=CCC4[C@@]5(C)C[C@@H](O)[C@H](O)[C@@](C)(CO)C5[C@H](O)C[C@]43C)[C@@H]2C1 (stereo partly specified)	0.344 ± 0.85
CNC(=Nc1ccc(C2=NNC(=O)CC2C)cc1)NC#N (stereo unspecified)	3.06
CCCN(CCC)S(=O)(=O)c1ccc(C(=O)O)cc1	2.06
C=C(C(=O)O)[C@@H]1CC[C@@]2(C)CC[C@@H](O)C(=C)C2C1 (stereo partly specified)	0.351
O=C(O)Cc1cccc(OCCCN(Cc2cccc(C(F)(F)F)c2Cl)CC(c2ccccc2)c2ccccc2)c1	1.13
N#CC(=Cc1ccc(O)c(O)c1)C(=O)OCCc1cccs1	3.95
CN(C)CC(=O)N[C@@H]1CC[C@@H](CCNC(=O)Nc2ccc(F)cc2)O[C@H]1CO	1.53
Cc1cc(N2CCCCC2)nc2ccccc12	0.281
O=c1cc(-c2ccc(O)c(O)c2)c2c(O[C@@H]3O[C@H](CO)[C@@H](O)[C@H](O)[C@H]3O)cc(O)cc2o1	1.33
CCNC(=O)[C@@H]1CCCN1C(=O)[C@H](CCCNC(=N)N)NC(=O)[C@H](CC(C)C)NC(=O)[C@@H](COC(C)(C)C)NC(=O)[C@H](Cc1ccc(O)cc1)NC(=O)[C@H](CO)NC(=O)[C@H](Cc1c[nH]c2ccccc12)NC(=O)[C@H](Cc1cnc[nH]1)NC(=O)C1CCC(=O)N1 (stereo partly specified)	-0.749
O=C(CCCCCCCn1cc(-c2cccnc2)nn1)Nc1ccccc1-c1ccccc1	3.26
COc1ccccc1N1CCN(CCn2c(=O)[nH]c3c([nH]c4ccccc43)c2=O)CC1	1.24
COc1ccc([C@@]2(O)c3c(ccc(/C=C/C4(C)CCC(C)(C)CO4)c3O)NC(=O)[C@@H]2OC)cc1 (stereo partly specified)	2.91
CCN(CC)CCCC(C)Nc1nc(C)cc(Nc2ccc3nc(C)cc(N)c3c2)n1 (stereo unspecified)	4.66
CC1OC(O[C@H]2CC[C@@]3(C)C(CC[C@]4(C)C3CC=C3C5CC(C)(C)CC[C@]5(C(=O)OC5OC(CO)C(OC6OC(CO)C(O)C(O)C6O)C(O)C5O)CC[C@]34C)C2(C)C)C(O)C(O)C1OC1OCC(O)(COC2OCC(O)C(OC3OCC(OC4OCC(O)(CO)C4O)C(O)C3O)C2O)C1O (stereo partly specified)	0.323
CC(C)(C)NCC(O)COc1cccc2[nH]c(=O)[nH]c12 (stereo unspecified)	3.02
COC(=O)/C=C/C(=O)N(O)CCCCNCc1ccc(COC(=O)Nc2cccc3ccccc23)cc1	2.34

Structure (SMILES)	cell shape (Z-score)
COC(=O)C[C@H]1[C@]2(C)C3=C(C)[C@H](c4ccoc4)C[C@H]3O[C@@H]2[C@H](OC(C)=O)C2[C@](C)(C(=O)OC)C=CC(=O)[C@@]21C (stereo partly specified)	0.979
CC(C)C[C@H](NC(=O)[C@H](Cc1ccccc1)C[C@@H](O)[C@H](Cc1ccccc1)NC(=O)OC(C)(C)C)C(=O)N[C@@H](Cc1ccccc1)C(N)=O	-0.393
CC(=O)[C@H]1CCC2[C@@H]3CCC4=CC(=O)CC[C@]4(C)C3CC[C@@]21C (stereo partly specified)	2.99
C/C=C/C1C2OC3=C(C(=O)OC3(C)O)C(=O)C1(C)C1CC(O)C(C)CC1C2O (stereo unspecified)	0.504
Cc1cnc(Nc2ccc(OCCN3CCCC3)cc2)nc1Nc1cccc(S(=O)(=O)NC(C)(C)C)c1	11.9
CC(C)(C)n1nc(-c2cccc3ccccc23)c2c(N)ncnc21	16.7
COc1ccc(C(=O)/C=C/c2ccccc2)cc1	3.14
OCCn1cc(-c2ccc3c(c2)CC/C3=N\O)c(-c2ccncc2)n1	3.67
Cc1cc(Cn2cnc3c2CC(C(=O)O)N(C(=O)C(c2ccccc2)c2ccccc2)C3)ccc1N(C)C (stereo unspecified)	0.582
CC(=O)Oc1cccc(C)c1	2.42
Cc1onc(-c2ccccc2)c1-c1ccc(S(N)(=O)=O)cc1	-0.0545
O=c1ncccn1[C@@H]1O[C@H](CO)[C@H](O)C1O (stereo partly specified)	6.32
C[C@@H]1CN(c2c(F)c(F)c3c(=O)c(C(=O)O)cn(C4CC4)c3c2F)C[C@H](C)N1	1.23
Nc1ccc(S(=O)(=O)Nc2ncccn2)cc1	2.8
O=C1c2ccccc2S(=O)(=O)N1CCCN1CCN(c2ncccn2)CC1	-0.907
CC(=O)N(C)C1(c2ccccc2)CCN(CCC[C@]2(c3ccc(Cl)c(Cl)c3)CCCN(C(=O)c3ccccc3)C2)CC1	1.35
CC(=O)OCC(=O)[C@@]12OC(C)(C)O[C@@H]1CC1C3C[C@H](F)C4=CC(=O)C=C[C@]4(C)[C@@]3(F)[C@@H](O)C[C@@]12C (stereo partly specified)	-2.9
COc1cc2c(c(OC)c1OC)CCc1cc(O)c(O)cc1-2	-0.208
COc1cccc2c1C(=O)CC(c1ccccc1)O2 (stereo unspecified)	1.75
O=C1C=CC(=O)C2=C1C1c3ccccc3C2c2ccccc21	1.84

Gathered by group: the compounds so far containing a Cl atom
Structure (SMILES)	cell shape (Z-score)
O=C(O)Cc1cccc(OCCCN(Cc2cccc(C(F)(F)F)c2Cl)CC(c2ccccc2)c2ccccc2)c1	1.13
CC(=O)N(C)C1(c2ccccc2)CCN(CCC[C@]2(c3ccc(Cl)c(Cl)c3)CCCN(C(=O)c3ccccc3)C2)CC1	1.35
